No constants are given. Whether binding was seen depends on the method and setting. Some binding calls cover weakened binding; strength is not graded here. Tags and fused reporters may be left off the sequences shown.

Experiment [1] addresses T1, murine CD47 on CD47+/+ (WT) murine splenocytes (mouse) (UniProt Q61735).
T1 sequence (looked up): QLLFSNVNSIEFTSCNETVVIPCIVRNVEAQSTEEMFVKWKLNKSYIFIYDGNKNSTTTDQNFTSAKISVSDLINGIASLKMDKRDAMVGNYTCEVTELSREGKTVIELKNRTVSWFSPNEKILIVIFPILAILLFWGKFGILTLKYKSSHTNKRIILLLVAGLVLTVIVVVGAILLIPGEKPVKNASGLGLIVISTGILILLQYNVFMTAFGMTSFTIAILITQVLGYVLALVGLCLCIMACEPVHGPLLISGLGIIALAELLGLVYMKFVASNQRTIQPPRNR
Put plainly: flow cytometry on murine splenocytes. Background: In flow cytometry, cells or beads pass a laser one at a time.

The target of experiment [2] is T1, murine CD47 on CD47+/+ (WT) murine splenocytes (mouse). Put plainly: flow cytometry on murine splenocytes, 5 µg/ml murine SIRPα-Fc.

B1: murine SIRPα-Fc (Fc fusion, mouse, UniProt P97797 32-373, looked up, not shown: a dimerising Fc or GST)
chain: KELKVTQPEKSVSVAAGDSTVLNCTLTSLLPVGPIRWYRGVGPSRLLIYSFAGEYVPRIRNVSDTTKRNNMDFSIRISNVTPADAGIYYCVKFQKGSSEPDTEIQSGGGTEVYVLAKPSPPEVSGPADRGIPDQKVNFTCKSHGFSPRNITLKWFKDGQELHPLETTVNPSGKNVSYNISSTVRVVLNSMDVNSKVICEVAHITLDRSPLRGIANLSNFIRVSPTVKVTQQSPTSMNQVNLTCRAERFYPEDLQLIWLENGNVSRNDTPKNLTKNTDGTYNYTSLFLVNSSAHREDVVFTCQVKHDQQPAITRNHTVLGFAHSSDQGSMQTFPDNNATHNWN
On to B1, for which the binding entry in experiment [1] and in experiment [2] was “binds” throughout.

For the origin of these results see patent US20110237498A1.
